Key:
[1] = Boc solid-phase peptide synthesis; Merrifield resin; DIC; HOBT in D-Trp, Tyr, Ser and Trp couplings; conditions: whole synthesis
[2] = general procedure: Boc solid-phase peptide synthesis; Merrifield resin; DIC; HOBT in D-Trp, Tyr, Ser and Trp couplings; conditions: whole synthesis

## pGlu-His-Trp-Ser-Tyr-D-Trp-Leu-Arg-Pro-Gly-NH2
[1]
  isolated mass: 8.4 gm
[2]
  final purity (method not given): >99%
  isolated yield: 59%
